The record followed here is article PMC10712050.

Amino acid sequences for entries named in this document (tags omitted). Residues count along the entry.
UniProt P58281, residues 88-960: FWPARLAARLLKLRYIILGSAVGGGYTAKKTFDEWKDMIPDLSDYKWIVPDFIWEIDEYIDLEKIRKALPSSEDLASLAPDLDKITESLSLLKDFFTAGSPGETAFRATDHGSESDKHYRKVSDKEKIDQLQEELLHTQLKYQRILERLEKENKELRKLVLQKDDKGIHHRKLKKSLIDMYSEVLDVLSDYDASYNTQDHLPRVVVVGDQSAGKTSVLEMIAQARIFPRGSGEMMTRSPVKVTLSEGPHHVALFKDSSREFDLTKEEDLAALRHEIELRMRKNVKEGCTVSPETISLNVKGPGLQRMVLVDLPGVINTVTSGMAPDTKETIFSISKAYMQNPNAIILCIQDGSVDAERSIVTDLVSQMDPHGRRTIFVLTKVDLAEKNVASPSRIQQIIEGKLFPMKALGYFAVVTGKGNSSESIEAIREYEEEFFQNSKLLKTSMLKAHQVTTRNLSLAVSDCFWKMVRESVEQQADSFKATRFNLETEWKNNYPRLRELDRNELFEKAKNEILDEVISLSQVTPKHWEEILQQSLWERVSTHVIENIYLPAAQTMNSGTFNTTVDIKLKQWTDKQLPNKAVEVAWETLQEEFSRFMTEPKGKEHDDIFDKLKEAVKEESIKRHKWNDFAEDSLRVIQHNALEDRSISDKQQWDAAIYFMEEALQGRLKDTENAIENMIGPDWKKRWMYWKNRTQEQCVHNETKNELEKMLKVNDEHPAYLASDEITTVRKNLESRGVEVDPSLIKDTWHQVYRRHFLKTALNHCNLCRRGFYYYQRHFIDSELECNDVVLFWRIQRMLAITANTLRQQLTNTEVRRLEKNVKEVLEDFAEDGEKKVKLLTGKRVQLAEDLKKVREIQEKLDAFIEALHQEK

The assay deals with T1, interleukin-1 receptor-associated kinase-like 2 (Irak2) (mouse (endogenous in primary mouse cardiomyocytes)) (UniProt Q8CFA1).
T1 sequence: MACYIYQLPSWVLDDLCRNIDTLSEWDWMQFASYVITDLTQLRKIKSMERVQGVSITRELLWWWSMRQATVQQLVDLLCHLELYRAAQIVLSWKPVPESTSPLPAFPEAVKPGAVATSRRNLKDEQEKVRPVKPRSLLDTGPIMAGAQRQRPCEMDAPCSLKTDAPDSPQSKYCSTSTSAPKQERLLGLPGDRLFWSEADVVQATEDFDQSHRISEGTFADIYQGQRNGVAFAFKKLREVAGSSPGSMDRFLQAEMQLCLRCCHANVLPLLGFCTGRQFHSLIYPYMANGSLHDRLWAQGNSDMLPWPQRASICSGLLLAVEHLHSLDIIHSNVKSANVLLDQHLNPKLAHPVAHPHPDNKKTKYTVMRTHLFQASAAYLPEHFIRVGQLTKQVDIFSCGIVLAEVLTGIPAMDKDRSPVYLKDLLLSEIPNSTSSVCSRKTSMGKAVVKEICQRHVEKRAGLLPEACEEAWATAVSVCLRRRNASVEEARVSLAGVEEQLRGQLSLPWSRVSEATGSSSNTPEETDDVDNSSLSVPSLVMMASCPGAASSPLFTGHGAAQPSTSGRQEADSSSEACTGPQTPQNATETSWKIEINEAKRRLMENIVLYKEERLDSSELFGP
The assay can be described thus: co-IP; Co-IP of Irak2 and Phb-Opa1 in myocardial mitochondria, upon PA challenge (Additional file 1: Fig. S4).

No constants are given. Whether binding was seen depends on the method and setting. In cells and extracts the contact can be indirect. Some entries that bind do so weakly or less than the wild type.

“optic atrophy protein 1 (Opa1) (from UniProt P58281 88-960)”: the binding entry is listed as “binds”.

B1: prohibitin (Phb) (protein, UniProt P67778 1-272)
chain: MAAKVFESIGKFGLALAVAGGVVNSALYNVDAGHRAVIFDRFRGVQDIVVGEGTHFLIPWVQKPIIFDCRSRPRNVPVITGSKDLQNVNITLRILFRPVASQLPRIYTSIGEDYDERVLPSITTEILKSVVARFDAGELITQRELVSRQVSDDLTERAATFGLILDDVSLTHLTFGKEFTEAVEAKQVAQQEAERARFVVEKAEQQKKAAIISAEGDSKAAELIANSLATAGDGLIELRKLEAAEDIAYQLSRSRNITYLPAGQSVLLQLPQ
For B1, the binding entry was “binds”.
